Measured values published in paper PMC7295066.
Results are given in words; binding and its absence hold for the method and conditions named. In cells and extracts the contact can be indirect. Some binding calls cover weakened binding; strength is not graded here.

Sequences of proteins named here, by UniProt entry; tags and fusion partners are left off.
UniProt Q9Y618: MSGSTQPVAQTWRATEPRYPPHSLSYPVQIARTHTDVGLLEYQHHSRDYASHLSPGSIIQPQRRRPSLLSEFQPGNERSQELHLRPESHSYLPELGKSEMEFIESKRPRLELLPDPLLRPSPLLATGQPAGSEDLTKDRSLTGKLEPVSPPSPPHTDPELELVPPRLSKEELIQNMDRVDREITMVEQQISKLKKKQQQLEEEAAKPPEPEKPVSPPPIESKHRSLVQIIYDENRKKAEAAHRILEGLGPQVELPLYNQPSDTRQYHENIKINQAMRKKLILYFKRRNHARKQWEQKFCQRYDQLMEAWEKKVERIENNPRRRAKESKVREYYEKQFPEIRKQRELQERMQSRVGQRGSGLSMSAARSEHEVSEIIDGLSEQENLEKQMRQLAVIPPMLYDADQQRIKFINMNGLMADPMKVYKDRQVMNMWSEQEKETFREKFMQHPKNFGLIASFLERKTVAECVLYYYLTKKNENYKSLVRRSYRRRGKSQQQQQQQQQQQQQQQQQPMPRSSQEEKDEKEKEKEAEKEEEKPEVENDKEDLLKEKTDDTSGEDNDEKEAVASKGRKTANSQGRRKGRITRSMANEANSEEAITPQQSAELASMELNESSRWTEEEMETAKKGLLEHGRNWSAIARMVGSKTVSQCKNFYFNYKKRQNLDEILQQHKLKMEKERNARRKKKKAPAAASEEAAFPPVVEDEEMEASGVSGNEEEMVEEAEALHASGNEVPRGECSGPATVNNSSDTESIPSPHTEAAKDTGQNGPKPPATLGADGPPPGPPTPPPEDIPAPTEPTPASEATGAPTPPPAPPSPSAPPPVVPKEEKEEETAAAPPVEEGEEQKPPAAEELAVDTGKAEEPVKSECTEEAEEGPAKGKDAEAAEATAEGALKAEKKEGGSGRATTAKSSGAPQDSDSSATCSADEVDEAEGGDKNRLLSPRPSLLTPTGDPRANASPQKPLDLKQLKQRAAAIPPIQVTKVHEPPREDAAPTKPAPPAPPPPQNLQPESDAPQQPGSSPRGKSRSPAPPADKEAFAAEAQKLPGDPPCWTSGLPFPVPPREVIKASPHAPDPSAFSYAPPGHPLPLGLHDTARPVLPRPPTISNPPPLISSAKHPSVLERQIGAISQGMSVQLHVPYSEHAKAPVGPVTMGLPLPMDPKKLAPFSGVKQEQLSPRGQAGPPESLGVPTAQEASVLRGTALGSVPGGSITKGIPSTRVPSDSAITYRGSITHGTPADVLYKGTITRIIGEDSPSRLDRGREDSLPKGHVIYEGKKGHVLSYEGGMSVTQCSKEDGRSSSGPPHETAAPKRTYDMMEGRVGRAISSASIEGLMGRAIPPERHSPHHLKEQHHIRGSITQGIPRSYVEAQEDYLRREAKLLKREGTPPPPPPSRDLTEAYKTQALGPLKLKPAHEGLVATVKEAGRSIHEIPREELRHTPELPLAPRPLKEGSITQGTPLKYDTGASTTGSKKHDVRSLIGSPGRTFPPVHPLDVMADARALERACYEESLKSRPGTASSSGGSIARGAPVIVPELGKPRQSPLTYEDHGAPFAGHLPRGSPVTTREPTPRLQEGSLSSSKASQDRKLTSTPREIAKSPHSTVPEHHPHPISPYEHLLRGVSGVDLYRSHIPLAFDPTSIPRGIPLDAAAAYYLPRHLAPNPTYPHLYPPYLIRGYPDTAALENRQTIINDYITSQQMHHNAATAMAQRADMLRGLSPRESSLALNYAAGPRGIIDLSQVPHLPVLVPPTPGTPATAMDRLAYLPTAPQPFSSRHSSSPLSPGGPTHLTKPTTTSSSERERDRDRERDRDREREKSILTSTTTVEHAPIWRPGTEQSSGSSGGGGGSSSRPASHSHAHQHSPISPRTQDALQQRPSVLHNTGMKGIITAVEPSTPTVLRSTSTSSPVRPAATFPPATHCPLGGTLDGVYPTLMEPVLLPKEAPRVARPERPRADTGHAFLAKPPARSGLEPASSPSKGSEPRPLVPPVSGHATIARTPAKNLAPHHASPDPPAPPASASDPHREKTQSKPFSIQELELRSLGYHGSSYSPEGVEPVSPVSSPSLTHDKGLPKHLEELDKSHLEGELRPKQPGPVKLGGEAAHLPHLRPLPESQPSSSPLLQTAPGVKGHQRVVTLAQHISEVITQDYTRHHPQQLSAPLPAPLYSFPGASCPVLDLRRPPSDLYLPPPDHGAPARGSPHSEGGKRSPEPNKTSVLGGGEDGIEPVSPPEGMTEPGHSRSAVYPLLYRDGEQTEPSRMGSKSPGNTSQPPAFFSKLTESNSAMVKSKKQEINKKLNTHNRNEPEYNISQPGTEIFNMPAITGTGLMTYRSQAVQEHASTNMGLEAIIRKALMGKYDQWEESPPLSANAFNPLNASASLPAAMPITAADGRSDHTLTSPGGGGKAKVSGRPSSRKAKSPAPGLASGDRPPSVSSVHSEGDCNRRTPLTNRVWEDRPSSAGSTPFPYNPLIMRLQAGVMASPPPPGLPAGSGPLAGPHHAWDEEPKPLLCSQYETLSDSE
UniProt P19793: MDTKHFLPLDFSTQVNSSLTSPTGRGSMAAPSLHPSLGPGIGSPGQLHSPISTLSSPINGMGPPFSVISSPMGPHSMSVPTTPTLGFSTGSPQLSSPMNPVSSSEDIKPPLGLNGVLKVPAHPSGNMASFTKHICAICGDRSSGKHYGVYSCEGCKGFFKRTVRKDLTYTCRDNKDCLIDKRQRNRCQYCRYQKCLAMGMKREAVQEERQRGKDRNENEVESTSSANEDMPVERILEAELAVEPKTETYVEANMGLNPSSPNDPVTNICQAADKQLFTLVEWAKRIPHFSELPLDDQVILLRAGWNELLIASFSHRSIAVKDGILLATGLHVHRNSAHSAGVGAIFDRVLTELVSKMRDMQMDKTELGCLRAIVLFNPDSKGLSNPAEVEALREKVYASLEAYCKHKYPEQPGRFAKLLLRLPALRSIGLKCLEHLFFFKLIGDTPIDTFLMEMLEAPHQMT

Legend:
[1] = target: nuclear receptor corepressor 2 (NCOR2) (human (endogenous in MDA-MB-231)) (UniProt Q9Y618); experiment: condition: only cells treated with emodin for 48 h (10 µM in the legend); co-IP; as a1, cells treated with emodin for 48 h before lysis (10 µM in the legend; increased dosages in the text)
[2] = target: nuclear receptor corepressor 2 (NCOR2) (human (endogenous in MDA-MB-231)) (UniProt Q9Y618); experiment: co-IP; endogenous proteins in MDA-MB-231 lysates (20 mM Tris-HCl pH 7.5, 150 mM NaCl, 2 mM EDTA, 1% Triton X100); anti-NCOR2, anti-RARα or anti-RXRα antibody with protein-G-agarose overnight at 4 °C; western blot; cells treated with DMSO or emodin for 48 h

## RXRα (from UniProt P19793 1-462)
[1]
  binding: no binding
[2]
  binding: binds
